Results as given in PubChem BioAssay AID248 (DTP/NCI, 2004).
The list shows only some results of the screen, not a fair sample: it gathers some chemical classes. Other doses and runs of a compound may be missing. T/C gives the treated animals as a percentage of the vehicle group. Some doses have a count of surviving animals in place of a T/C: the source files T/C as zero there, which appears to mark a toxic dose or a test without result, not a measured value. Counts of survivors are from the toxicity check (mostly the fifth day) where no day follows; animals may have died later. Schedule codes are those of the source, taken here to give the interval after Q, in days (D) or hours (H), and the number of doses after X. Where survival is the endpoint, the PubChem record calls one and a half times the control and up active, and a quarter to a half above the control has no call in these data; cut-offs in other NCI protocols can differ. Some T/C values are followed by the survivors on the day toxicity was checked, most often the fifth; without a count or a note in brackets, all were alive then. Some doses were run more than once; the values are given in rising order. Some schedules carry Z or #; the key to these is not given.

System: L1210 leukemia ip in BDF1 mice, survival T/C
Assay: NCI In Vivo Anticancer Drug Screen. Data for tumor model L1210 Leukemia (intraperitoneal) in B6D2F1 (BDF1) mice
Details: T/C endpoint: mean survival time, higher T/C = longer survival
[1] = dose: 400.0 mg/kg/injection, schedule: Q01DX001 (ip), vehicle: water
[2] = dose: 400.0 mg/kg/injection, schedule: Q01DX001 (iv), vehicle: water

Structure (SMILES): NC(=O)c1[nH]cnc1/N=N\N(CCCl)CCCl
- T/C (dose: 300.0 mg/kg/injection, schedule: Q04DX005 (oral), vehicle: steroid suspending solution): 100 % of control
- T/C (dose: 300.0 mg/kg/injection, schedule: Q04DX Z (ip), vehicle: carboxymethylcellulose (CMC)): 240 and 310 % of control
- T/C (dose: 300.0 mg/kg/injection, schedule: Q04DX Z (sc), vehicle: carboxymethylcellulose (CMC)): 316 % of control
- T/C (dose: 300.0 mg/kg/injection, schedule: Q06HX012 (oral), vehicle: steroid suspending solution): 190 % of control
- T/C (dose: 300.0 mg/kg/injection, schedule: Q06HX020 (oral), vehicle: steroid suspending solution): 101 % of control
- T/C (dose: 300.0 mg/kg/injection, schedule: Q08DX002 (ip), vehicle: carboxymethylcellulose (CMC)): 287 and 304 % of control
- T/C (dose: 300.0 mg/kg/injection, schedule: Q08DX003 (ip), vehicle: carboxymethylcellulose (CMC)): 600 % of control
- T/C (dose: 300.0 mg/kg/injection, schedule: Q08DX003 (oral), vehicle: carboxymethylcellulose (CMC)): 147 % of control
- T/C (dose: 300.0 mg/kg/injection, schedule: Q08DX003 (oral), vehicle: steroid suspending solution): 93 % of control
- T/C (dose: 300.0 mg/kg/injection, schedule: Q08DX Z (ip), vehicle: carboxymethylcellulose (CMC)): 198 and 435 % of control
- T/C (dose: 300.0 mg/kg/injection, schedule: Q## X001 (ip), vehicle: carboxymethylcellulose (CMC)): 374 % of control
- T/C (dose: 300.0 mg/kg/injection, schedule: Q## X009 (oral), vehicle: carboxymethylcellulose (CMC)): 200 % of control
- T/C (dose: 336.0 mg/kg/injection, schedule: Q03DX Z (ip), vehicle: carboxymethylcellulose (CMC)): 177 % of control
- T/C (dose: 350.0 mg/kg/injection, schedule: Q01DX001 (ip), vehicle: carboxymethylcellulose (CMC)): 250, 259, 275, 281, 315, 611 % of control
- T/C (dose: 350.0 mg/kg/injection, schedule: Q04DX002 (ip), vehicle: carboxymethylcellulose (CMC)): 611 % of control
- T/C (dose: 350.0 mg/kg/injection, schedule: Q04DX003 (ip), vehicle: carboxymethylcellulose (CMC)): 233 % of control [9 of 10 alive]
- survivor count (dose: 350.0 mg/kg/injection, schedule: Q04DX004 (ip), vehicle: carboxymethylcellulose (CMC)): 0 of 10
- T/C (dose: 350.0 mg/kg/injection, schedule: Q04DX005 (ip), vehicle: carboxymethylcellulose (CMC)): 227 % of control
- T/C (dose: 350.0 mg/kg/injection, schedule: Q07DX Z (ip), vehicle: carboxymethylcellulose (CMC)): 343 % of control
- T/C (dose: 350.0 mg/kg/injection, schedule: Q## X001 (ip), vehicle: carboxymethylcellulose (CMC)): 403 % of control
- T/C (dose: 360.0 mg/kg/injection, schedule: Q01DX001 (ip), vehicle: other): 103 % of control
- T/C (dose: 360.0 mg/kg/injection, schedule: Q01DX001 (ip), vehicle: steroid suspending solution): 116 % of control
- T/C (dose: 375.0 mg/kg/injection, schedule: Q01DX001 (ip), vehicle: carboxymethylcellulose (CMC)): 244 % of control
- T/C (dose: 378.0 mg/kg/injection, schedule: Q01DX Z (im), vehicle: carboxymethylcellulose (CMC)): 124 % of control
- T/C (dose: 378.0 mg/kg/injection, schedule: Q01DX Z (oral), vehicle: carboxymethylcellulose (CMC)): 154 % of control
- T/C (dose: 378.0 mg/kg/injection, schedule: Q01DX Z (sc), vehicle: carboxymethylcellulose (CMC)): 134 % of control
- T/C (dose: 392.0 mg/kg/injection, schedule: Q01DX001 (ip), vehicle: steroid suspending solution): 558 % of control
- T/C (dose: 400.0 mg/kg/injection, schedule: Q01DX001 (ip), vehicle: carboxymethylcellulose (CMC)): 200, 281, 287, 335, 352, 395 % of control
- T/C (dose: 400.0 mg/kg/injection, schedule: Q01DX001 (ip), vehicle: clinical formulation): 90 [4 of 6 alive] and 321 % of control
- T/C (dose: 400.0 mg/kg/injection, schedule: Q01DX001 (ip), vehicle: saline): 270 and 280 % of control
- T/C (dose: 400.0 mg/kg/injection, schedule: Q01DX001 (ip), vehicle: steroid suspending solution, evaluated on day 6): 375 % of control
- T/C (dose: 400.0 mg/kg/injection, schedule: Q01DX001 (ip), vehicle: steroid suspending solution, evaluated on day 28): 145 % of control
- T/C (dose: 400.0 mg/kg/injection, schedule: Q01DX001 (ip), vehicle: steroid suspending solution, evaluated on day 60): 302, 326, 372, 401, 559 % of control
- T/C [1]: 230, 515, 624 % of control
- survivor count [1]: 2 of 6
- T/C [2]: 475 and 616 % of control
- survivor count [2]: 0 of 6
- T/C (dose: 400.0 mg/kg/injection, schedule: Q01DX001 (oral), vehicle: carboxymethylcellulose (CMC)): 201 % of control
- T/C (dose: 400.0 mg/kg/injection, schedule: Q01DX005 (ip), vehicle: carboxymethylcellulose (CMC)): 129 and 173 % of control [9 of 10 alive]
- T/C (dose: 400.0 mg/kg/injection, schedule: Q01DX009 (oral), vehicle: carboxymethylcellulose (CMC)): 98 % of control
- T/C (dose: 400.0 mg/kg/injection, schedule: Q01DX Z (oral), vehicle: carboxymethylcellulose (CMC)): 94 % of control
- T/C (dose: 400.0 mg/kg/injection, schedule: Q03HX003 (ip), vehicle: carboxymethylcellulose (CMC)): 369 % of control
- T/C (dose: 400.0 mg/kg/injection, schedule: Q04DX002 (ip), vehicle: water): 207 and 258 % of control
- T/C (dose: 400.0 mg/kg/injection, schedule: Q04DX003 (ip), vehicle: carboxymethylcellulose (CMC)): 373 % of control
- T/C (dose: 400.0 mg/kg/injection, schedule: Q04DX003 (ip), vehicle: water): 101 % of control
- T/C (dose: 400.0 mg/kg/injection, schedule: Q04DX003 (oral), vehicle: carboxymethylcellulose (CMC)): 479 % of control
- T/C (dose: 400.0 mg/kg/injection, schedule: Q04DX005 (ip), vehicle: carboxymethylcellulose (CMC)): 126, 218, 287 % of control
- T/C (dose: 400.0 mg/kg/injection, schedule: Q04DX Z (oral), vehicle: carboxymethylcellulose (CMC)): 127 % of control
- T/C (dose: 400.0 mg/kg/injection, schedule: Q08DX002 (ip), vehicle: carboxymethylcellulose (CMC)): 403 % of control
- T/C (dose: 400.0 mg/kg/injection, schedule: Q08DX002 (ip), vehicle: water): 105 % of control
- T/C (dose: 400.0 mg/kg/injection, schedule: Q08DX002 (oral), vehicle: carboxymethylcellulose (CMC)): 324 % of control
- T/C (dose: 400.0 mg/kg/injection, schedule: Q08DX003 (ip), vehicle: carboxymethylcellulose (CMC)): 193 % of control
- T/C (dose: 400.0 mg/kg/injection, schedule: Q08DX Z (oral), vehicle: carboxymethylcellulose (CMC)): 304 % of control
- T/C (dose: 400.0 mg/kg/injection, schedule: Q## X001 (ip), vehicle: carboxymethylcellulose (CMC)): 420 % of control
- T/C (dose: 400.0 mg/kg/injection, schedule: Q## X003 (ip), vehicle: carboxymethylcellulose (CMC)): 226 % of control
- T/C (dose: 415.0 mg/kg/injection, schedule: Q01DX001 (ip), vehicle: saline): 123 % of control
- T/C (dose: 415.0 mg/kg/injection, schedule: Q01DX001 (ip), vehicle: steroid suspending solution): 160 % of control
- T/C (dose: 450.0 mg/kg/injection, schedule: Q01DX001 (ip), vehicle: carboxymethylcellulose (CMC)): 278, 344, 374 % of control
- T/C (dose: 450.0 mg/kg/injection, schedule: Q## X001 (ip), vehicle: carboxymethylcellulose (CMC)): 400 % of control
- T/C (dose: 500.0 mg/kg/injection, schedule: Q01DX001 (ip), vehicle: carboxymethylcellulose (CMC)): 231, 255, 310, 322, 337, 365, 392, 605 % of control
- T/C (dose: 500.0 mg/kg/injection, schedule: Q04DX003 (ip), vehicle: carboxymethylcellulose (CMC)): 108 % of control
- T/C (dose: 500.0 mg/kg/injection, schedule: Q04DX005 (ip), vehicle: carboxymethylcellulose (CMC)): 195 % of control
